According to PMC10329019, “Membrane translocation process revealed by in situ structures of type II secretion system secretins” (Nature Communications, 2023):
No constants are given. Whether binding was seen depends on the method and setting. Some results given as binding are weak or reduced against the parent protein; the word gives no strength. Sequences can lack the tags named with a protein.

Target: GspDβ secretin (ETEC H10407 strain) with hexahistidine tag, from pBAD-gspDβ-his, in ΔgspS cells (Enterotoxigenic E. coli (ETEC) H10407 strain) (UniProt E3PJ86)
Test: cryo-EM structure; in situ cryo-ET subtomogram averaging of GspDβ particles on the inner membrane of ΔgspS E. coli minicells; 370 particles, C15 symmetry imposed, 14 Å

B1: GspDβ secretin (ETEC H10407 strain) with hexahistidine tag, from pBAD-gspDβ-his, in ΔgspS cells (protein, UniProt E3PJ86 41-686)
chain: EEATFTANFKDTDLKSFIETVGANLNKTIIMGPGVQGKVSIRTMTPLNERQYYQLFLNLLEAQGYAVVPMENDVLKVVKSSAAKVEPLPLVGEGSDNYAGDEMVTKVVPVRNVSVRELAPILRQMIDSAGSGNVVNYDPSNVIMLTGRASVVERLTEVIQRVDHAGNRTEEVIPLDNASASEIARVLESLTKNSGENQPATLKSQIVADERTNSVIVSGDPATRDKMRRLIRRLDSEMERSGNSQVFYLKYSKAEDLVDVLKQVSGTLTAAKEEAEGTVGSGREIVSIAASKHSNALIVTAPQDIMQSLQSVIEQLDIRRAQVHVEALIVEVAEGSNINFGVQWASKDAGLMQFANGTQIPIGTLGAAISQAKPQKGSTVISENGATTINPDTNGDLSTLAQLLSGFSGTAVGVVKGDWMALVQAVKNDSSSNVLSTPSITTLDNQEAFFMVGQDVPVLTGSTVGSNNSNPFNTVERKKVGIMLKVTPQINEGNAVQMVIEQEVSKVEGQTSLDVVFGERKLKTTVLANDGELIVLGGLMDDQAGESVAKVPLLGDIPLIGNLFKSTADKKEKRNLMVFIRPTILRDGMAADGVSQRKYNYMRAEQIYRDEQGLSLMPHTAQPVLPAQNQALPPEVRAFLNAGRTR
  binding: binds
